The text below walks through data of patent US20090215742A1, “AMIDE […]” (PFIZER, INC., priority 2005, published 2009).

In the assay the target is HSP-90 (Homo sapiens, UniProt P07900). Kind of assay: HSP-90 SPA (scintillation proximity assay) competition binding assay, displacement of tritiated propyl-Geldanamycin. The following applies: SPA competition vs 200 nM 3H-pGA, 30 nM HSP-90; Examples 137 to 214, 217-218.

The structures given here were assigned with low confidence; some may be wrong.

Turning to `O=C(OCc1ccccc1)[C@H]1CCCN1C(=O)c1ccc(O)cc1O`, the Ki (commonly the equilibrium dissociation constant of an inhibitor or competing ligand from its target) is 270 nM.
